Measured values reported in article PMC5432272.

B1: GGA1 (Golgi-localized, γ-ear containing, Arf-binding protein 1) (protein, UniProt Q9UJY5 1-639)
chain: MEPAMEPETLEARINRATNPLNKELDWASINGFCEQLNEDFEGPPLATRLLAHKIQSPQEWEAIQALTVLETCMKSCGKRFHDEVGKFRFLNELIKVVSPKYLGSRTSEKVKNKILELLYSWTVGLPEEVKIAEAYQMLKKQGIVKSDPKLPDDTTFPLPPPRPKNVIFEDEEKSKMLARLLKSSHPEDLRAANKLIKEMVQEDQKRMEKISKRVNAIEEVNNNVKLLTEMVMSHSQGGAAAGSSEDLMKELYQRCERMRPTLFRLASDTEDNDEALAEILQANDNLTQVINLYKQLVRGEEVNGDATAGSIPGSTSALLDLSGLDLPPAGTTYPAMPTRPGEQASPEQPSASVSLLDDELMSLGLSDPTPPSGPSLDGTGWNSFQSSDATEPPAPALAQAPSMESRPPAQTSLPASSGLDDLDLLGKTLLQQSLPPESQQVRWEKQQPTPRLTLRDLQNKSSSCSSPSSSATSLLHTVSPEPPRPPQQPVPTELSLASITVPLESIKPSNILPVTVYDQHGFRILFHFARDPLPGRSDVLVVVVSMLSTAPQPIRNIVFQSAVPKVMKVKLQPPSGTELPAFNPIVHPSAITQVLLLANPQKEKVRLRYKLTFTMGDQTYNEMGDVDQFPPPETWGSL
B2: GGA3 (Golgi-localized, γ-ear containing, Arf-binding protein 3) (protein, UniProt Q9NZ52 1-723)
chain: MAEAEGESLESWLNKATNPSNRQEDWEYIIGFCDQINKELEGPQIAVRLLAHKIQSPQEWEALQALTVLEACMKNCGRRFHNEVGKFRFLNELIKVVSPKYLGDRVSEKVKTKVIELLYSWTMALPEEAKIKDAYHMLKRQGIVQSDPPIPVDRTLIPSPPPRPKNPVFDDEEKSKLLAKLLKSKNPDDLQEANKLIKSMVKEDEARIQKVTKRLHTLEEVNNNVRLLSEMLLHYSQEDSSDGDRELMKELFDQCENKRRTLFKLASETEDNDNSLGDILQASDNLSRVINSYKTIIEGQVINGEVATLTLPDSEGNSQCSNQGTLIDLAELDTTNSLSSVLAPAPTPPSSGIPILPPPPQASGPPRSRSSSQAEATLGPSSTSNALSWLDEELLCLGLADPAPNVPPKESAGNSQWHLLQREQSDLDFFSPRPGTAACGASDAPLLQPSAPSSSSSQAPLPPPFPAPVVPASVPAPSAGSSLFSTGVAPALAPKVEPAVPGHHGLALGNSALHHLDALDQLLEEAKVTSGLVKPTTSPLIPTTTPARPLLPFSTGPGSPLFQPLSFQSQGSPPKGPELSLASIHVPLESIKPSSALPVTAYDKNGFRILFHFAKECPPGRPDVLVVVVSMLNTAPLPVKSIVLQAAVPKSMKVKLQPPSGTELSPFSPIQPPAAITQVMLLANPLKEKVRLRYKLTFALGEQLSTEVGEVDQFPPVEQWGNL

Target: Trichosanthin (Trichosanthes kirilowii Maximowicz)
Assay: affinity purification with mass spectrometry; 50 μg TCS coupled to CNBr-activated Sepharose beads; HepG2 lysate (50 mM Tris-HCl pH 7.5, 150 mM NaCl, 1 mM EDTA, 1% NP-40), 4 °C, 2 hours; SDS-PAGE, silver staining, bands cut and analysed by LC-MS/MS; only the target purified

Row | Binder | binding
1 | B1 | binds
2 | B2 | binds

These are yes or no findings as the source states them, for the method shown. In cells and extracts the contact can be indirect. A yes stands for co-enrichment or nearness to the bait. Other partners may have been found.
